Data taken from article PMC10127746, “Genetic Dissection of Budding Yeast PCNA Mutations Responsible for the Regulated Recruitment of Srs2 Helicase” (mBio, 2023).
No constants are given. Whether binding was seen depends on the method and setting. Sequences can lack the tags named with a protein.

Sequences of proteins named here, by UniProt entry; tags and fusion partners are left off.
UniProt P15873: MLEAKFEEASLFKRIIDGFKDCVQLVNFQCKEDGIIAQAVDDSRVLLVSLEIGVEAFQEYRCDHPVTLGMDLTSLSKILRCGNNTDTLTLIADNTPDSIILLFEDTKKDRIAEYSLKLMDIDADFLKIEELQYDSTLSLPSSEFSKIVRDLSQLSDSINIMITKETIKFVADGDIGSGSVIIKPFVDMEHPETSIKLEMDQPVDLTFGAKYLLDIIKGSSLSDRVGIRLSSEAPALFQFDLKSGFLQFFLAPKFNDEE

Target: T1, Siz1, Gal4BD fusion (S. cerevisiae) (UniProt Q04195)
T1 sequence: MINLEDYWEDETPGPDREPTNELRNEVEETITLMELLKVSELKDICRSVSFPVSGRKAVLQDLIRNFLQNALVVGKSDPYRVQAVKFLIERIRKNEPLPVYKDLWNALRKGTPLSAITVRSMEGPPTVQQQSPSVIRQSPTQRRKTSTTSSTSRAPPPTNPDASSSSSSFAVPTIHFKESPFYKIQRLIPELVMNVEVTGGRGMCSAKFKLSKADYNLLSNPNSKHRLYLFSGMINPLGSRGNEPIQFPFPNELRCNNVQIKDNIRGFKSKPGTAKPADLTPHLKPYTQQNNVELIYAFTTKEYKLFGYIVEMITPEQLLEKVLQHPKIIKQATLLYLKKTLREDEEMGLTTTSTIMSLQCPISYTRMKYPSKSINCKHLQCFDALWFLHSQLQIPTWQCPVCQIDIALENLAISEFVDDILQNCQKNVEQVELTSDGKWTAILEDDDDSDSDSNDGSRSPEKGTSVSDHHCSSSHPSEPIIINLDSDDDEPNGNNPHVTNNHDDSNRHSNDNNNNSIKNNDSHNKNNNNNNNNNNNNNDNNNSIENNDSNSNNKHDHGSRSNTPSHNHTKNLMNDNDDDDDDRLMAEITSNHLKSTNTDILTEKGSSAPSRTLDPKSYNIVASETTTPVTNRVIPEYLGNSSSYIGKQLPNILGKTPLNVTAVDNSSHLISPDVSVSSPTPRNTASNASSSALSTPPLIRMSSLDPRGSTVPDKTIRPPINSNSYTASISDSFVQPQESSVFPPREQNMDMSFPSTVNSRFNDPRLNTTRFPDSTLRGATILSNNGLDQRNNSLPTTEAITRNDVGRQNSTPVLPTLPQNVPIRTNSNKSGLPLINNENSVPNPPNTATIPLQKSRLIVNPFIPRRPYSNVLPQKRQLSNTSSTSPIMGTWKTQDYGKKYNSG
Assay: two-hybrid; Gal4BD fusions (pGBT9: Srs2, Siz1, Rad30) and Gal4AD fusions (pGAD424: Pol30 and mutants) cotransformed into PJ69-4a; growth on SD-Leu-Trp-His with or without 3AT, 30°C, 2 to 6 days

- binding: no binding
Substance: Pol30 (PCNA), Gal4AD fusion (from UniProt P15873 1-258)
